Source: patent US9462810B2, “Method for inactivating viruses with slightly acidic arginine” (AJINOMOTO CO., INC., priority 2007, dated 2016)
Some of these results come from one statement about several compounds together.

Tested on: herpes simplex viruses type 1, strain F (HSV-1)
Assay: HSV-1 inactivation by buffer solutions on ice for one hour, residual titer by plaque assay on Vero cells
Format: cell-based
Conditions: concentration 0.14 M or more, pH 4.0 (Example 4)

Cl.N=C(N)NCCC[C@H](N)C(=O)O [arginine hydrochloride]
Virus Inactivating Efficiency (LRV): > 1.0
